Source: PubChem BioAssay AID1671195 (Yale University, 2021)
This is one part, drawn at random, of about 22,000 reagents. About 1,510 of them (6.9%) were called active. 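Active includes knockdowns raising or lowering LDL uptake; positive z-scores mean more uptake, negative mean less.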 Unmarked entries are inactive. Reagent sequences are not shown.

- Screen: 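Genes whose knockdown alters LDL uptake in liver cancer cells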 (primary screen)
- Cell system: human Huh7 hepatoma cells
- Reagent: siRNA pool against human genes, 18 nM
- Timing: about 2 to 2.5 days of knockdown, then 8 h LDL uptake
- Conditions: DiI-labelled LDL at 30 µg/ml for 8 h, in lipoprotein-deficient serum medium
- Read-out: 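Per-cell DiI-LDL intensity by automated imaging; well means scaled to the plate median and given as a robust z-score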
- Scale: robust z-score: higher = more LDL uptake after knockdown
- Call rule: 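a gene counts as active if at least two replicate z-scores exceed ±2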

The first 8 entries, to show the layout:
gene | PubChem SID | robust z-score, replicate 1 | robust z-score, replicate 2 | robust z-score, replicate 3
RP1L1 | SID442897657 | -0.0834 | -0.582 | -0.564
RIOX2 | SID442897571 | -0.0647 | -0.527 | -0.609
ERCC1 | SID442902132 | -1.23 | -0.935 | -0.889
PDE6G | SID442904068 | -1.98 | -1.1 | -1.36
BIN1 | SID442890456 | 0.617 | 0.192 | 0.435
STPG2 | SID442897717 | -0.464 | -0.739 | -0.0465
RIOX1 | SID442886590 | 1.19 | 0.756 | 1.4
PRKCA | SID442889624 | 0.617 | 1.21 | -0.23

The listing, repeating the preview:
gene | PubChem SID | robust z-score, replicate 1 | robust z-score, replicate 2 | robust z-score, replicate 3
RP1L1 | SID442897657 | -0.0834 | -0.582 | -0.564
RIOX2 | SID442897571 | -0.0647 | -0.527 | -0.609
ERCC1 | SID442902132 | -1.23 | -0.935 | -0.889
PDE6G | SID442904068 | -1.98 | -1.1 | -1.36
BIN1 | SID442890456 | 0.617 | 0.192 | 0.435
STPG2 | SID442897717 | -0.464 | -0.739 | -0.0465
RIOX1 | SID442886590 | 1.19 | 0.756 | 1.4
PRKCA | SID442889624 | 0.617 | 1.21 | -0.23
SRSF3 | SID442900628 | -1.02 | -0.991 | -0.341
LOC343221 (retired record) | SID442893424 | 0.0579 | 0.0841 | 0.0131
DPPA2 | SID442894024 | -0.197 | 0.744 | -0.601
TAF4 | SID442892200 | 0.745 | -0.0459 | -0.106
PIGQ | SID442904566 | -1.78 | -1.81 | -1.56
PCDHGB3 | SID442884481 | -2.42 (active) | -2.27 | -1.89
PCDHA4 | SID442893096 | -0.00238 | 0.168 | 0.101
DDT | SID442904378 | -1.48 | -1.32 | -2.02
LOC391088 (retired record) | SID442890680 | 0.425 | 0.544 | 0.181
LOC439991 (retired record) | SID442895936 | -0.355 | 0.0325 | -0.344
CD8B | SID442895200 | -0.0052 | -0.0359 | -0.395
PSG4 | SID442891155 | -0.022 | 0.224 | 0.768
MLXIP | SID442896835 | -0.183 | -1.35 | 0.581
SATB2 | SID442896917 | -1.05 | -0.35 | 0.418
CBS | SID442901685 | -0.985 | -0.867 | -0.963
LTBP1 | SID442889521 | 1.38 | 0.575 | -0.312
LOC441448 (retired record) | SID442888648 | 1.2 | 0.176 | 0.679
FMO3 | SID442902673 | -1.43 | -0.958 | -0.983
EIF3G | SID442895051 | -0.842 | 1.19 | -0.73
NDUFS1 | SID442895518 | 0.239 | -0.783 | 0.0105
MAN1B1 | SID442897631 | 0.47 | -0.357 | -1.33
DAPP1 | SID442884568 | -3.1 (active) | -1.75 | -2.87
HTR3B | SID442902618 | -1.18 | -0.788 | -1.37
LOC388353 (retired record) | SID442885339 | 1.25 | 1.54 | 1.88
SMR3A | SID442904099 | -1.19 | -2.41 | -0.878
PGM3 | SID442888257 | 0.508 | 1.38 | 0.375
ERICH3 | SID442888965 | 0.608 | 0.37 | 0.922
A3GALT2 | SID442903403 | -1.55 | -0.827 | -1.49
LOC151273 (retired record) | SID442885645 | 2.33 | 0.908 | 1.03
TOP3A | SID442889464 | -0.175 | 1.08 | 0.755
TMSB4Y | SID442885972 | 2.22 | 0.799 | 0.892
FAM24B | SID442899044 | -0.363 | -0.673 | -0.675
RAB38 | SID442897918 | 0.125 | -0.749 | -0.693
POLRMT | SID442897390 | -0.379 | -0.588 | -0.176
RAB8A | SID442896795 | -0.561 | -0.13 | -0.25
MLF1 | SID442891552 | 1.51 | -0.636 | -0.0528
KCNA5 | SID442896576 | -0.284 | 0.0655 | -0.649
LAMP5 | SID442884731 | 1.76 | 1.77 | 2.17
NKTR | SID442889352 | 0.689 | -0.2 | 1.23
GYPE | SID442893411 | -0.0506 | 0.499 | -0.288
CCT5 | SID442897921 | -0.44 | -0.5 | -0.378
IGFBP3 | SID442890758 | 0.49 | 0.345 | 0.28
RRP7A | SID442884226 | 2.23 (active) | 0.356 | 2.11
LOC440418 (retired record) | SID442903668 | -1.02 | -1.16 | -1.88
ALS2CL | SID442889301 | 0.606 | 0.685 | 0.454
PRKG2 | SID442888630 | 0.417 | 0.858 | 0.787
SPAG1 | SID442892352 | 0.509 | 0.0298 | -0.00641
ZCCHC17 | SID442894965 | -1.02 | 1.06 | -0.396
PRCD | SID442900048 | -0.552 | -0.754 | -0.807
VCF1 | SID442904286 | -1.36 | -1.63 | -1.69
H2BC4 | SID442887363 | 0.554 | 0.647 | 1.59
KRT20 | SID442904757 | -2.32 | -1.63 | -1.67
IQCF6 | SID442895989 | 0.248 | -0.444 | -0.483
VSTM2B | SID442892550 | 0.109 | -0.0171 | 0.364
ALOX5 | SID442894832 | -0.187 | -0.0837 | -0.0431
ERBB4 | SID442897742 | 0.0465 | -0.538 | -0.767
LOC440513 (retired record) | SID442890429 | 0.555 | 0.29 | 0.412
FAM178B | SID442887369 | 1.36 | 2.47 | -1.05
ZNF660 | SID442904230 | -1.86 | -1.64 | -1.11
CORO2A | SID442885619 | 1.13 | 0.674 | 2.51
